The exact form of at least one protein or probe is not confirmed. Tags and fusion partners may be left off the protein sequences shown.
Molecular target: T1, OsTZF7 (Oryza sativa cv. Nip) (UniProt Q65X92)
T1 sequence (looked up, limits assumed): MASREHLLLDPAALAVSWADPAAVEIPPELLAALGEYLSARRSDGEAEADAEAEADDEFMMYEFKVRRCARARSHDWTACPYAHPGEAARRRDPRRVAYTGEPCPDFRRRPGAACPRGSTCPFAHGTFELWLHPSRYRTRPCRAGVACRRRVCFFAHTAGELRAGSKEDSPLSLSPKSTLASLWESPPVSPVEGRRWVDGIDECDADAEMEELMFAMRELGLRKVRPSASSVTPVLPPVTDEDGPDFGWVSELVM
Experiment: EMSA
Conditions: 3 mM Mg2+, 5 uM Zn2+; 10 mM Tris-HCl pH 8.0, 40 mM KCl, 2 mM DTT (printed DDT), 3 mM MgCl2, 5 uM ZnCl2, 20% glycerol; ~60 ng RNA in 20 ul, room temperature 30 min; 6% native PAGE at 4 C; recombinant protein; label: none (SYBR Green stain); probe letters rebuilt from the primers and the genome; part of a longer molecule

Row | Sequence | binding result
1 | ACAAAUAAUAUAAUCCCUUCUAUUUAUUUAUUUAUACUUCAUCGCCAUCUCGAAUUCUCGAUGGAUCGAUCGUUAAUUAGCUACCUUGCUCCUUAAUUCCUUCAUGUAUUUGCUUCAGCUUCAGCUCAACGAUCGAUCACACAUUCACACUCUUGGAAUUGUAUGUAC [Os02g0829850 3'UTR ARE-like] | binds
2 | CCAUGCUUUAUUUAAUUUGUUCAGCUUGUAGAAAAUUCUUUCGAAAACAUGUAUUUGUAUAUGCACGAAUGAAUAGAUGGAGCUAUAUGUAUUUAUGCAC [Os01g0864500 3'UTR ARE-like] | binds
